Values quoted from earlier work, collected in patent US20220000854A1 (CHASE THERAPEUTICS CORPORATION, priority 2018, published 2022).

System: brain cell systems
Settings: cited from earlier work

## CC(C)c1c(C(=O)Nc2ccccc2)c(-c2ccccc2)c(-c2ccc(F)cc2)n1CC[C@@H](O)C[C@@H](O)CC(=O)O [atorvastatin, (3R,5R)-7-[2-(4-fluorophenyl)-3-phenyl-4-(phenylcarbamoyl)-5-propan-2-ylpyrrol-1-yl]-3,5-dihydroxyheptanoic acid]
  protection against 6-hydroxydopamine (6-OHDA): protect against the deleterious consequences of the dopaminergic neurotoxin 6-hydroxydopamine
